# Test results taken from publication PMC9976904.
# Sequences of proteins named here, by UniProt entry; tags and fusion partners are left off.
# UniProt P60842, whole entry E183Q: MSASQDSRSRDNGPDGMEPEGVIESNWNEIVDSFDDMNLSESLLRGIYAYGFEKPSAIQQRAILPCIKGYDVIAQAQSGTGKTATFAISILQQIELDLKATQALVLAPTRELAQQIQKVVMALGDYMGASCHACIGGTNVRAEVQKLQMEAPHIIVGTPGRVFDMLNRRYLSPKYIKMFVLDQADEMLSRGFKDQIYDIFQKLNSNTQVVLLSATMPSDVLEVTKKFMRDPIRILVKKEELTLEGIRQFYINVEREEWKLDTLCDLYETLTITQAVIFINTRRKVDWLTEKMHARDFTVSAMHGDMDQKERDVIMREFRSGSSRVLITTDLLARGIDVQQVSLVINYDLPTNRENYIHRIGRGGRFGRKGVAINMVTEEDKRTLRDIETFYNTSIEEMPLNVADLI
# Key:
# [1] = target: eIF4A1 DQAD E183Q (human) (UniProt P60842); assay: RNA-binding assay; settings: no silvestrol, RNA-binding deficiency stated; 20 mM HEPES/KOH pH 7.5, 100 mM KCl, 1 mM TCEP, 1% DMSO, 2 mM AMPPNP/MgCl2, 25 C, 60 min; recombinant protein; protein details: N-terminal 6xHis-SUMO, cleaved; label: FAM or 5' Dy780
# eIF4A1 + eIF4H = assay: fluorescence anisotropy; settings: 0.5 uM eIF4H, AMPPNP, sequence differences almost abolished; 20 mM HEPES/KOH pH 7.5, 100 mM KCl, 1 mM TCEP, 1% DMSO, 2 mM AMPPNP/MgCl2, 25 C, 60 min; recombinant protein; label: FAM or 5' Dy780
# eIF4A1 + eIF4G-MC = assay: fluorescence anisotropy; settings: 0.5 uM eIF4G-MC, AMPPNP, sequence differences almost abolished; 20 mM HEPES/KOH pH 7.5, 100 mM KCl, 1 mM TCEP, 1% DMSO, 2 mM AMPPNP/MgCl2, 25 C, 60 min; recombinant protein; label: FAM or 5' Dy780
sequence,measurement,setting,value
AGAGAGAGAGAGAGAGAGAG [AG-RNA (20 nt)],binding result,[1],binds more weakly
same,binding result,eIF4A1 + eIF4H,binds
same,binding result,eIF4A1 + eIF4G-MC,binds

# For at least one entry, the source does not settle the construct or the ends of the probe. For part of these data: The comparison behind a weaker result is the experiment's own reference, which may not be listed here. For part of these data: At least one verdict was read from the data and is not stated in words by the source.
